# At least one structure is not confirmed: it was looked up by name or label, or the drawing left a doubt.
# Amino acid sequences for entries named in this document (tags omitted).
# UniProt P80457, whole entry: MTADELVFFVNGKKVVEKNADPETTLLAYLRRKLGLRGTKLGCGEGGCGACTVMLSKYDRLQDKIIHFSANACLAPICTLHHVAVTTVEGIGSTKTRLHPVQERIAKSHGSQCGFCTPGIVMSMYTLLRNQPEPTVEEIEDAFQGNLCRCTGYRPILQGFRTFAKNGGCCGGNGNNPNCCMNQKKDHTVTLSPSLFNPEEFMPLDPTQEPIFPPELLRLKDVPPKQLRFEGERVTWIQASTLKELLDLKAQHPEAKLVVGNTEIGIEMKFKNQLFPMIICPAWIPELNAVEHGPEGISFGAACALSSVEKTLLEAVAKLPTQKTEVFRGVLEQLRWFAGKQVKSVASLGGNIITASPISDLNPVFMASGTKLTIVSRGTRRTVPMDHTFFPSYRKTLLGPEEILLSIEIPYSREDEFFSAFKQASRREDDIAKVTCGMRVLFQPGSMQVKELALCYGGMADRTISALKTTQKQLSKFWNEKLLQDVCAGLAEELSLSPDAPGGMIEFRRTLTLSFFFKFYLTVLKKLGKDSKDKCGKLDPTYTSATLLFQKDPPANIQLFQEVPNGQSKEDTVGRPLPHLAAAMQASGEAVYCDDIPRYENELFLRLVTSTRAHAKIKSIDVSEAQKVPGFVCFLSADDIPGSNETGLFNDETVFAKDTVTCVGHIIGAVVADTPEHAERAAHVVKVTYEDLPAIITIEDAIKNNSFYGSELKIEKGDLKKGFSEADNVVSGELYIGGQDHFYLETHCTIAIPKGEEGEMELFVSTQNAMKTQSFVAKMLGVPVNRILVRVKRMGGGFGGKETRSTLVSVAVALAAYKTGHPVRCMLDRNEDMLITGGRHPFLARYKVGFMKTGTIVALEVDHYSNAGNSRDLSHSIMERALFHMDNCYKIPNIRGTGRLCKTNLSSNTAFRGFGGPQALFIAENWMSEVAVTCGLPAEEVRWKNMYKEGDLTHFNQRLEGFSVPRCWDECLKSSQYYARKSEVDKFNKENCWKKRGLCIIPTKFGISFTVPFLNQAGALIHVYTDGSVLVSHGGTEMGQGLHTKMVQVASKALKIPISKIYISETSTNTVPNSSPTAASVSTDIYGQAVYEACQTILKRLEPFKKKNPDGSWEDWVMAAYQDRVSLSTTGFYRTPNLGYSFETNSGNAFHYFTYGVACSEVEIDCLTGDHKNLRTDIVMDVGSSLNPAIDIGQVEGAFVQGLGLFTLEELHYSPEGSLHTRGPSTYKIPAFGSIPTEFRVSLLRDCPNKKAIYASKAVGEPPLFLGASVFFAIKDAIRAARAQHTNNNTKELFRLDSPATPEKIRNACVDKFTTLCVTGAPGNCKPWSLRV
# Molecular target: Xanthine oxidase from bovine milk (Bos taurus, UniProt P80457)
# Details: each compound at 20 μM (FIG. 2)
row,SMILES,inhibition of XO
1,"CCN(CC)C(=O)/C(C#N)=C/c1cc(O)c(O)c([N+](=O)[O-])c1 [Entacapone, reference compound]",did not show any inhibitory effect on XO
2,"OCCc1ccc(O)c(O)c1 [hydroxytyrosol, 3,4-dihydroxyphenyl ethanol, reference compound]",no effect on XO
